Data as given in patent US7718693B2, “Receptor antagonists and their methods of use” (Glaxo Group Limited, priority 2006, dated 2010).
Some entries share one result that the patent states for a list of compounds.

Target: T1, human recombinant P2X7 receptors (Homo sapiens, UniProt Q99572)
T1 construct: expressed in transfected cells; host or cells: HEK293
T1 sequence (Q99572 1-595): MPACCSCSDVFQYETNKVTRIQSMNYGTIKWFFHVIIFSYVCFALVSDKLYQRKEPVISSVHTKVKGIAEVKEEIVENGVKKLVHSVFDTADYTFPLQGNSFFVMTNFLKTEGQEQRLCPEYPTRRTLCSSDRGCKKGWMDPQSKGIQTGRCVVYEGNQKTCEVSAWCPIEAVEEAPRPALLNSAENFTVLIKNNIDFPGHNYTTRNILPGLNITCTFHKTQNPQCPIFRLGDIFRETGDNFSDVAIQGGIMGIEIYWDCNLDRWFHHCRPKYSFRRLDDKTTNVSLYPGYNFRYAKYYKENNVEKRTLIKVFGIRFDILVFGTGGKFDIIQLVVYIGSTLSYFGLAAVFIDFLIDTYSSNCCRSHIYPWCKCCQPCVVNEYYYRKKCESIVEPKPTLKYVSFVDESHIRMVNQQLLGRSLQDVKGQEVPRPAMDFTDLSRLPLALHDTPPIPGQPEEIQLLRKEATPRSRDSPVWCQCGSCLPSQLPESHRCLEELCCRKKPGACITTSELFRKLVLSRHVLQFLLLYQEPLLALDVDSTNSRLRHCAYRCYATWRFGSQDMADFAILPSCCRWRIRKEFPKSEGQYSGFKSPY
Test: Fluorescent Imaging Plate Reader (FLIPR) Ca Assay
Assay type: cell-based
Settings: HEK293 cells expressing human recombinant P2X7; BzATP 60 μM; tested in FLIPR and/or ethidium assay

Row | Compound | pIC50 values in the FLIPR Ca Assay (blocking BzATP responses)
1 | CCC(C)N1C(=O)CC[C@H]1C(=O)NCc1ccc(F)cc1Cl (stereo partly shown) [Example E8, N-[(2-chloro-4-fluorophenyl)methyl]-1-(1-methylpropyl)-5-oxoprolinamide] | > 4.7
2 | CN1C(=O)CC[C@H]1C(=O)NCc1ccc(Cl)cc1Cl [Example E10, N-[(2,4-dichlorophenyl)methyl]-1-methyl-5-oxo-prolinamide] | > 4.7
3 | CCN1C(=O)CC[C@H]1C(=O)NCc1ccc(F)c(F)c1F [Example E12, 1-Ethyl-5-oxo-N-[(2,3,4-trifluorophenyl)methyl]-prolinamide] | > 4.7
4 | CCN1C(=O)CC[C@H]1C(=O)NCc1ccccc1Br [Example E13, N-[(2-bromophenyl)methyl]-1-ethyl-5-oxo-prolinamide] | > 4.7
5 | CCN1C(=O)CC[C@H]1C(=O)NCc1c(F)cccc1Cl [Example E14, N-[(2-chloro-6-fluorophenyl)methyl]-1-ethyl-5-oxo-prolinamide] | > 4.7
6 | CCN1C(=O)CC[C@H]1C(=O)NCc1ccc(Cl)cc1C [Example E19, N-[(4-chloro-2-methylphenyl)methyl]-1-ethyl-5-oxo-prolinamide] | > 4.7
7 | CCN1C(=O)CC[C@H]1C(=O)NCc1c(F)ccc(F)c1Cl [Example E20, N-[(2-chloro-3,6-difluorophenyl)methyl]-1-ethyl-5-oxo-prolinamide] | > 4.7
8 | CCN1C(=O)CC[C@H]1C(=O)NCc1ccc(Cl)c(Cl)c1 [Example E22, N-[(3,4-dichlorophenyl)methyl]-1-ethyl-5-oxo-prolinamide] | > 4.7
9 | CCN1C(=O)CC[C@H]1C(=O)NCc1ccc(F)cc1C(F)(F)F [Example E23, 1-Ethyl-N-{[4-fluoro-2-(trifluoromethyl)phenyl]methyl}-5-oxo-prolinamide] | > 4.7
10 | CCN1C(=O)CC[C@H]1C(=O)NCc1ccc(C)cc1C [Example E24, N-[(2,4-dimethylphenyl)methyl]-1-ethyl-5-oxo-prolinamide] | > 4.7
11 | CCN1C(=O)CC[C@H]1C(=O)NCc1c(C)cccc1Cl [Example E25, N-[(2-chloro-6-methylphenyl)methyl]-1-ethyl-5-oxo-prolinamide] | > 4.7
12 | CCN1C(=O)CC[C@H]1C(=O)NCc1c(F)ccc(C)c1Cl [Example E26, N-[(2-chloro-6-fluoro-3-methylphenyl)methyl]-1-ethyl-5-oxo-prolinamide] | > 4.7
13 | CCN1C(=O)CC[C@H]1C(=O)NCc1c(Cl)ccc(C)c1F [Example E27, N-[(6-chloro-2-fluoro-3-methylphenyl)methyl]-1-ethyl-5-oxo-prolinamide] | > 4.7
14 | CCN1C(=O)CC[C@H]1C(=O)NCc1cccc(Cl)c1C [Example E29, N-[(3-chloro-2-methylphenyl)methyl]-1-ethyl-5-oxoprolinamide] | > 4.7
15 | CCN1C(=O)CC[C@H]1C(=O)NCc1c(Cl)cccc1Cl [Example E30, N-[(2,6-dichlorophenyl)methyl]-1-ethyl-5-oxoprolinamide] | > 4.7
16 | CCN1C(=O)CC[C@H]1C(=O)NCc1ccc(F)c(C(F)(F)F)c1 [Example E31, 1-Ethyl-N-{[4-fluoro-3-(trifluoromethyl)phenyl]methyl}-5-oxoprolinamide] | > 4.7

Row | Compound | pIC50 values in the FLIPR Ca Assay (blocking BzATP responses)
17 | CCN1C(=O)CC[C@H]1C(=O)NCc1ccc(Cl)c(C(F)(F)F)c1 [Example E32, N-{[4-chloro-3-(trifluoromethyl)phenyl]methyl}-1-ethyl-5-oxoprolinamide] | > 4.7
18 | CCN1C(=O)CC[C@H]1C(=O)NCc1ccc(Br)cc1F [Example E33, N-[(4-bromo-2-fluorophenyl)methyl]-1-ethyl-5-oxoprolinamide] | > 4.7
19 | CCN1C(=O)CC[C@H]1C(=O)NCc1ccccc1C [Example E34, 1-Ethyl-N-[(2-methylphenyl)methyl]-5-oxoprolinamide] | > 4.7
20 | CCN1C(=O)CC[C@H]1C(=O)NCc1ccc(F)c(F)c1Cl [Example E36, N-[(2-chloro-3,4-difluorophenyl)methyl]-1-ethyl-5-oxoprolinamide] | > 4.7
21 | CCN1C(=O)C(Cc2ccccc2)C[C@H]1C(=O)NCc1ccc(F)cc1Cl (stereo partly shown) [Example E37, N-[(2-chloro-4-fluorophenyl)methyl]-1-ethyl-5-oxo-4-(phenylmethyl)prolinamide] | > 4.7
22 | C=C(C)CN1C(=O)CC[C@H]1C(=O)NCc1ccc(F)cc1Cl [Example E38, N-[(2-chloro-4-fluorophenyl)methyl]-1-(2-methyl-2-propen-1-yl)-5-oxoprolinamide] | > 4.7
23 | O=C(NCc1ccc(Cl)cc1Cl)[C@@H]1CCC(=O)N1C1CC1 [Example E39, 1-Cyclopropyl-N-[(2,4-dichlorophenyl)methyl]-5-oxoprolinamide] | > 4.7
24 | O=C(NCc1cccc(C(F)(F)F)c1Cl)[C@@H]1CCC(=O)N1C1CC1 [Example E40, N-{[2-Chloro-3-(trifluoromethyl)phenyl]methyl}-1-cyclopropyl-5-oxoprolinamide] | > 4.7
25 | O=C(NCc1ccc(F)cc1Cl)[C@@H]1CCC(=O)N1C1CC1 [Example E41, N-[(2-chloro-4-fluorophenyl)methyl]-1-cyclopropyl-5-oxoprolinamide] | > 4.7
26 | CCN1C(=O)C(C)(C)C[C@H]1C(=O)NCc1ccc(Cl)cc1Cl [Example E42, N-[(2,4-dichlorophenyl)methyl]-1-ethyl-4,4-dimethyl-5-oxoprolinamide] | > 4.7
27 | CC(C)N1C(=O)CC[C@H]1C(=O)NCc1cccc(C(F)(F)F)c1Cl [Example E43, N-{[2-chloro-3-(trifluoromethyl)phenyl]methyl}-1-(1-methylethyl)-5-oxoprolinamide] | > 4.7
28 | Cc1c(CNC(=O)[C@@H]2CCC(=O)N2C(C)C)cccc1C(F)(F)F [Example E44, 1-(1-methylethyl)-N-{[2-methyl-3-(trifluoromethyl)phenyl]methyl}-5-oxoprolinamide] | > 4.7
29 | CC(C)N1C(=O)CC[C@H]1C(=O)NCc1cccc(Cl)c1Cl [Example E45, N-[(2,3-dichlorophenyl)methyl]-1-(1-methylethyl)-5-oxoprolinamide] | > 4.7
30 | CC(C)N1C(=O)CC[C@H]1C(=O)NCc1ccc(F)c(F)c1Cl [Example E46, N-[(2-chloro-3,4-difluorophenyl)methyl]-1-(1-methylethyl)-5-oxoprolinamide] | > 4.7
31 | CC(C)N1C(=O)CC[C@H]1C(=O)NCc1ccc(Cl)cc1Cl [Example E47, N-[(2,4-dichlorophenyl)methyl]-1-(1-methylethyl)-5-oxoprolinamide] | > 4.7
